The other results are listed elsewhere or left out. The main result of the screen is listed elsewhere. These columns were measured beside it and carry no call. Most of these compounds were active or inconclusive in the main read-out, so they are no random draw. The note in brackets gives the kind of curve behind each potency; many fits are weak.
Experiment: qHTS Assay for Lipid Storage Modulators in Drosophila S3 Cells;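 as to cell number change: cells counted by Cell Tracker Red CMTPX staining in the red channel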
Conditions: BODIPY lipid droplet fluorescence, 18-24 h; for cell number change: measured here: cell count max response, cells fed with added oleic acid
Summary of the method: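 Drosophila S3 cells loaded with oleic acid (400 uM, as added) and compounds at several concentrations; lipid droplets imaged by 488-nm laser-scanning cytometry, 500–530 nm intensity and object ratio to cell channel. Percent activity normalized to 20 uM Triacsin C.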

[1] = measured here: cell number channel AC50, cells fed with added oleic acid
[2] = measured here: lipid fluorescence (Fed channel) AC50, cells fed with added oleic acid

Question: For `CC1CN(C(=O)COC(=O)c2cc(Cl)ccc2[N+](=O)[O-])CC(C)O1` (stereo not drawn), which cell number change is on record?
Answer: 4.5%

Question: Which results are given for `COc1cccc(CNC(=O)CSc2nnc3c(n2)[nH]c2ccccc23)c1`?
Answer: cell number change: 36.3%; AC50 [1]: 29.1 µM [rising, single point]

Question: With `COc1ccccc1OCC(=O)N(Cc1nc(-c2ccccc2)no1)C(C)C` as the compound, how does the cell number change read?
Answer: 3.36%

Question: For `CCOC(=O)c1ccccc1NC(=O)COC(=O)c1c(CC)noc1C`, which AC50 [1] is on record?
Answer: 0.92 µM [rising, single point]

Question: And the AC50 [2]?
Answer: 0.92 µM [rising, full curve, poor fit]

Question: For `O=C(NCc1ccc(F)cc1)c1cnn2ccccc12`, which cell number change is on record?
Answer: 4.52%

Question: And the AC50 [2]?
Answer: 0.82 µM [rising, single point]

Question: For `O=C(NCc1cccnc1)/C(=C\c1ccc(-c2ccc(Br)cc2)o1)S(=O)(=O)c1ccccc1`, which cell number change is on record?
Answer: -71.5%

Question: And the AC50 [1]?
Answer: 13 µM [falling, partial curve]

Question: And the AC50 [2]?
Answer: 8.2 µM [falling, partial curve]

Question: What does the source list for `CCOc1ccc(-c2nc(-c3cccs3)c(CC(=O)O)s2)cc1OC`?
Answer: cell number change: 35%; AC50 [1]: 18.4 µM [rising, single point]

Question: For `COc1ccc(/C=C/C(=O)OCC(=O)c2ccc[nH]2)cc1`, which cell number change is on record?
Answer: -4.63%

Question: And the AC50 [2]?
Answer: 6.51 µM [rising, partial curve, poor fit]

Question: Which cell number change does the source give for `COc1cccc(N2C(=O)C3CC=C(Cl)CC3C2=O)c1` (stereo not drawn) here?
Answer: 16.8%

Question: What does the source list for `CCOC(=O)c1sc(NC(=O)CSc2nccc(C)n2)c(C#N)c1C`?
Answer: cell number change: 56.3%; AC50 [1]: 29.1 µM [rising, single point]; AC50 [2]: 1.46 µM [rising, full curve]

Question: With `Nc1nc(SCc2cccc([N+](=O)[O-])c2)n[nH]1` as the compound, how does the cell number change read?
Answer: -2.24%

Question: And the AC50 [2]?
Answer: 6.51 µM [rising, partial curve, poor fit]

Question: For `COc1ccccc1N(CC(=O)Nc1ccccc1C(=O)NC(C)C)S(C)(=O)=O`, which cell number change is on record?
Answer: -1.21%

Question: And the AC50 [2]?
Answer: 0.00461 µM [rising, full curve, poor fit]

Question: For `CC(=O)c1ccc(OCC(=O)NCC2(N3CCCCC3)CCCCC2)cc1`, which cell number change is on record?
Answer: -37.5%

Question: And the AC50 [1]?
Answer: 20.6 µM [falling, single point]

Question: With `CS(=O)(=O)Nc1ccc(C(=O)NCCC2=CCCCC2)cc1` as the compound, how does the cell number change read?
Answer: 71.3%

Question: What about the AC50 [1] of the same compound?
Answer: 29.1 µM [rising, single point]

Question: What about the AC50 [2] of the same compound?
Answer: 29.1 µM [rising, single point]

Question: With `O=[N+]([O-])c1ccccc1S(=O)(=O)N1CCN(CC2CC=CCC2)CC1` (stereo not drawn) as the compound, how does the cell number change read?
Answer: 12.1%

Question: Which cell number change does the source give for `Cc1cc(C)c(S(=O)(=O)NCc2cn3c(C)csc3n2)cc1C` here?
Answer: -18.9%

Question: What about the AC50 [2] of the same compound?
Answer: 3.26 µM [rising, single point]

Question: With `NS(=O)(=O)c1ccc(CCNC(=O)C(=O)c2c[nH]c3ccccc23)cc1` as the compound, how does the cell number change read?
Answer: 13.6%

Question: What about the AC50 [2] of the same compound?
Answer: 1.64 µM [rising, partial curve]

Reference: PubChem BioAssay AID2685 (National Center for Advancing Translational Sciences (NCATS), 2010)
